Data from patent US5840691A, “Method for treating ischemia using polypeptides with fibronectin activity” (priority 1995, dated 1998).
At least one peptide structure holds a part that was inferred or is arguable (an end, a ring closure or a residue). Ends that are not written are not given here.

What was measured:
SCW-induced arthritis = SCW-induced arthritis in Lewis rats (Articular Index, histology); format: in vivo
[1] = system: cardiac allograft rejection; assay: Rat heterotopic heart allograft transplant model, histologic evaluation; format: in vivo, rat (Brown Norway donor hearts, Lewis recipients); details: 3 i.v. doses, 1 mg of each peptide; 72 hours
[2] = system: adhesion of TGF-β1 (-/-) leukocytes to endothelial cell monolayers (mouse pulmonary artery endothelial cells); assay: Cell attachment inhibition assay, leukocytes on endothelial cell monolayers; format: cell-based, mice; details: in vitro, polypeptides tested individually
[3] = system: adhesion of TGF-β1 (-/-) leukocytes to fibronectin substrates (33 kD heparin-binding fragment); assay: Cell attachment inhibition assay, leukocytes on fibronectin substrates; format: cell-based, mice; details: in vitro, polypeptides tested individually

WQPPRARI [FNV, trp-gln-pro-pro-arg-ala-arg-ile]
articular index (AI), day 28 (SCW-induced arthritis; OA-coupled peptides i.v. on days 11-15 (chronic synovitis), OA control 11.3±0.5): 4.5±1.0
articular index (AI), day 27 (SCW-induced arthritis; OA-coupled peptides, 1 mg i.v. daily on days 0-4, chronic inflammation, OA control 10.5±0.3): 1.7±0.5
articular index (AI), day 3 (SCW-induced arthritis; OA-coupled peptides, 1 mg i.v. daily on days 0-4, height of the acute response, max score 16, OA control 8.5±1.2): 5.7±1.1
articular index (AI), day 24 (SCW-induced arthritis; uncoupled peptides, 1 mg i.v. on days 0-4, untreated 9.7): 2.8
rejection (myocyte damage) [1]: no evidence of rejection
adhesion of TGF-β1 (-/-) leukocytes to endothelial cell monolayers [2]: blocked
adhesion of TGF-β1 (-/-) leukocytes to fibronectin substrates [3]: blocked
